Where “and” joins values, the source holds several entries; their conditions need not be identical. Equal values may be shown once. ± gives the standard deviation of the averaged measurements. The list shows a part of the results. Repeats are few or missing, and single values can be far off.

The record followed here is the supplement of paper PMC6690932.

The test deals with HeLa. Put plainly: lysosomal-METRIQ red/green fluorescence ratio relative to DMSO (ratio to DMSO); higher = higher lysosomal activity / lysosomal biogenesis. Conditions: 10 µM; 12 h.
For `C[C@H]1O[C@@H](n2cnc3c(N)ncnc32)C[C@@H]1O` [2',5'-dideoxyadenosine], the “lysosomal-METRIQ red/green fluorescence ratio” value came to 1.

In the case of `CC1=C2C(=O)[C@H]3[C@@H](CC=C4C[C@@H](O)CC[C@@]43C)[C@@H]2CC[C@]12O[C@@H]1C[C@H](C)CN[C@H]1[C@H]2C` [Jervine], the “lysosomal-METRIQ red/green fluorescence ratio” value was 1.5.

On to `CC(C)(O)/C=C/C(=O)[C@](C)(O)[C@H]1[C@H](O)C[C@@]2(C)[C@@H]3CC=C4[C@@H](C=C(O)C(=O)C4(C)C)[C@]3(C)C(=O)C[C@]12C` [Cucurbitacin I], for which the “lysosomal-METRIQ red/green fluorescence ratio” value amounted to 1.47.

`CC(=O)N[C@H]1[C@@H](O[C@@H]2O[C@H](CC(O)[C@H]3O[C@@H](n4ccc(=O)[nH]c4=O)[C@H](O)[C@@H]3O)[C@H](O)[C@H](O)[C@H]2NC(=O)/C=C/CC(C)C)O[C@H](CO)[C@@H](N)[C@@H]1O` (stereo partly specified) [Tunicamycin]: the “lysosomal-METRIQ red/green fluorescence ratio” value came to 0.913.

On to `CNc1ccc2oc(C[C@H]3O[C@@]4(CC[C@H]3C)O[C@H]([C@H](C)C(=O)c3ccc[nH]3)[C@H](C)C[C@H]4C)nc2c1C(=O)O`, for which the “lysosomal-METRIQ red/green fluorescence ratio” value is 1.76.

`CC[C@@]1(O)C(=O)OCc2c1cc1n(c2=O)Cc2cc3ccccc3nc2-1` [Camptothecin]: the “lysosomal-METRIQ red/green fluorescence ratio” value stood at 1.23.

For `C[C@@H]1C[C@@H]([C@H](O)CC2CC(=O)NC(=O)C2)C(=O)[C@@H](C)C1` [Cycloheximide], the “lysosomal-METRIQ red/green fluorescence ratio” value amounted to 1.8.

Take `CC(C)(C)c1cc(C=C(C#N)C#N)cc(Br)c1O`: the “lysosomal-METRIQ red/green fluorescence ratio” value is 1.03 ± 0.044.

Regarding `C[C@]12CCC(=O)C(O)=C1CC[C@@H]1[C@@H]2CC[C@]2(C)C(=O)CC[C@@H]12` [Formestane], the “lysosomal-METRIQ red/green fluorescence ratio” value worked out at 0.88.

On to `C/C(O)=C(\C#N)C(=O)Nc1cc(Br)ccc1Br`, for which the “lysosomal-METRIQ red/green fluorescence ratio” value came to 1.05 ± 0.064.

As for `CC(C)(c1ccc(OCC2CO2)cc1)c1ccc(OCC2CO2)cc1` (stereo unspecified), the “lysosomal-METRIQ red/green fluorescence ratio” value came out at 1.

`C=C(C)[C@H]1Cc2c(ccc3c2O[C@@H]2COc4cc(OC)c(OC)cc4[C@@H]2C3=O)O1` [Rotenone]: the “lysosomal-METRIQ red/green fluorescence ratio” value came out at 1.09.

Regarding `CN[C@@H]1C[C@H]2O[C@@](C)([C@@H]1OC)n1c3ccccc3c3c4c(c5c6ccccc6n2c5c31)C(=O)NC4` [Staurosporine], the “lysosomal-METRIQ red/green fluorescence ratio” value worked out at 2.07.

As to `C[C@@H]1O[C@@H](O[C@H]2C[C@@H](O)[C@]3(CO)[C@H]4[C@H](O)C[C@]5(C)[C@@H](C6=CC(=O)OC6)CC[C@]5(O)[C@@H]4CC[C@]3(O)C2)[C@H](O)[C@H](O)[C@H]1O` [Ouabain], the “lysosomal-METRIQ red/green fluorescence ratio” value stood at 1.56.

Take `CN1C(=O)CN=C(c2ccc(Cl)cc2)c2cc(Cl)ccc21`: the “lysosomal-METRIQ red/green fluorescence ratio” value stood at 1.17.

As to `CN(N=O)c1cc(O)ccc1O` [Dephostatin], the “lysosomal-METRIQ red/green fluorescence ratio” value is 1.07.

Regarding `COC[C@H]1OC(=O)c2coc3c2[C@@]1(C)C1=C(C3=O)[C@@H]2CCC(=O)[C@@]2(C)C[C@H]1OC(C)=O` [Wortmannin], the “lysosomal-METRIQ red/green fluorescence ratio” value was found to be 1 ± 0.091.

On to `C[C@@]1(CO)[C@H](O)CC[C@@]2(C)[C@H]1CC[C@H]1C[C@@H]3C[C@@]12CC[C@]3(O)CO` [Aphidicolin], for which the “lysosomal-METRIQ red/green fluorescence ratio” value is 1.15.

On to `CCC1(c2ccc(N)cc2)CCC(=O)NC1=O` (stereo unspecified) [Aminoglutethimide], for which the “lysosomal-METRIQ red/green fluorescence ratio” value amounted to 1.

For the compound `NC(=S)N/N=C\c1coc2ccccc2c1=O.[Cl][Cu][Cl]` [Akt Inhibitor XI], the “lysosomal-METRIQ red/green fluorescence ratio” value was determined as 1.

Turning to `O=C1NC(=O)c2c1c1c3ccccc3n3c1c1c2c2ccccc2n1[C@H]1CC[C@@H]3O1`, the “lysosomal-METRIQ red/green fluorescence ratio” value is 2.09 and 2.18.
